Results reported in PubChem BioAssay AID248 (DTP/NCI, 2004).
The list does not hold the whole screen: it gathers tests that were run many times, whatever their T/C, doses with no T/C, and many T/C values between a quarter and a half above the control. Further doses and runs are listed elsewhere. T/C gives the treated animals as a percentage of the vehicle group. Some entries give survivors of the animals treated and no T/C: the source holds a T/C of zero for them, seemingly a mark for toxic or unscored doses. Some doses without a T/C left all or most animals alive at the check, yet need not have been tolerated: survival well below the control is almost never listed, so the zero probably covers shortened survival too. Survivors were counted at the toxicity check, usually on the fifth day, unless a day is given; later deaths do not show. Schedule codes are those of the source, taken here to give the interval after Q, in days (D) or hours (H), and the number of doses after X. Some doses were run more than once; their values stand side by side, smallest first. Some schedules carry Z or #; the key to these is not given. Where survival is the endpoint, the PubChem record calls one and a half times the control and up active, and a quarter to a half above the control has no call in these data; cut-offs in other NCI protocols can differ. Some T/C values carry the count of animals alive at the toxicity check (mostly the fifth day); without a count, all were alive then.

Test system: L1210 leukemia ip in BDF1 mice, survival T/C
Test: NCI In Vivo Anticancer Drug Screen. Data for tumor model L1210 Leukemia (intraperitoneal) in B6D2F1 (BDF1) mice
Conditions: higher T/C = longer survival
[1] = T/C endpoint: mean survival time, dose: 600.0 mg/kg/injection, schedule: Q01DX001 (ip), vehicle: alkali diluted with saline

`S=c1nc[nH]c2nc[nH]c12` was tested, and the survivor count (T/C endpoint: mean survival time, dose: 400.0 mg/kg/injection, schedule: Q01DX009 (ip), vehicle: Klucel (hydroxypropylcellulose) (HPC)) was 6 of 6, the T/C (T/C endpoint: mean survival time, dose: 405.0 mg/kg/injection, schedule: Q04DX003 (ip), vehicle: saline with Tween-80) was 130 % of control [5 of 6 alive] and the survivor count (T/C endpoint: mean survival time, dose: 450.0 mg/kg/injection, schedule: Q## X004 (ip), vehicle: alkali diluted with saline) was 4 of 10. The T/C (T/C endpoint: mean survival time, dose: 500.0 mg/kg/injection, schedule: Q01DX001 (ip), vehicle: Klucel (hydroxypropylcellulose) (HPC)) was 128 % of control, the survivor count (T/C endpoint: mean survival time, dose: 500.0 mg/kg/injection, schedule: Q01DX001 (ip), vehicle: alkali diluted with saline) was 5 of 10 and the T/C (T/C endpoint: mean survival time, dose: 500.0 mg/kg/injection, schedule: Q04DX003 (ip), vehicle: Klucel (hydroxypropylcellulose) (HPC)) was 136 % of control. The T/C (T/C endpoint: mean survival time, dose: 512.0 mg/kg/injection, schedule: Q01DX001 (ip), vehicle: carboxymethylcellulose (CMC)) was 142 % of control, the T/C (T/C endpoint: mean survival time, dose: 560.0 mg/kg/injection, schedule: Q01DX001 (ip), vehicle: other) was 138 and 139 % of control and the T/C (T/C endpoint: mean survival time, dose: 560.0 mg/kg/injection, schedule: Q07DX Z (ip), vehicle: other) was 132 % of control. The T/C [1] was 142 % of control, the survivor count [1] was 2 of 10 and the T/C (T/C endpoint: mean survival time, dose: 600.0 mg/kg/injection, schedule: Q## X032 (ip), vehicle: alkali diluted with saline) was 129 % of control. The survivor count (T/C endpoint: mean survival time, dose: 640.0 mg/kg/injection, schedule: Q01DX009 (ip), vehicle: saline with Tween-80) was 4 of 6 and 6 of 6, the survivor count (T/C endpoint: mean survival time, dose: 640.0 mg/kg/injection, schedule: Q01DX009 (oral), vehicle: saline with Tween-80) was 5 of 6 and 6 of 6 and the survivor count (T/C endpoint: mean survival time, dose: 800.0 mg/kg/injection, schedule: Q01DX009 (ip), vehicle: Klucel (hydroxypropylcellulose) (HPC)) was 6 of 6. The T/C (T/C endpoint: mean survival time, dose: 1020.0 mg/kg/injection, schedule: Q01DX001 (ip), vehicle: other) was 148 % of control, the survivor count (T/C endpoint: mean survival time, dose: 1280.0 mg/kg/injection, schedule: Q01DX Z (oral), vehicle: other) was 5 of 6 and the T/C (T/C endpoint: mean survival time, dose: 5350.0 micrograms/kg/injection, schedule: Q01DX Z (ip), vehicle: carboxymethylcellulose (CMC)) was 132 % of control. For the same molecule, the T/C (T/C endpoint: median survival time, dose: 12.5 mg/kg/injection, schedule: Q01DX009 (ip), vehicle: other) was 132 % of control, the T/C (T/C endpoint: median survival time, dose: 20.0 mg/kg/injection, schedule: Q01DX009 (ip), vehicle: saline) was 110, 112, 118, 130 % of control and the T/C (T/C endpoint: median survival time, dose: 25.0 mg/kg/injection, schedule: Q01DX009 (ip), vehicle: other) was 132 % of control. For the same molecule, the T/C (T/C endpoint: median survival time, dose: 25.0 mg/kg/injection, schedule: Q01DX009 (ip), vehicle: water) was 127 % of control, the T/C (T/C endpoint: median survival time, dose: 36.0 mg/kg/injection, schedule: Q01DX001 (ip), vehicle: alkali diluted with saline) was 125 % of control and the T/C (T/C endpoint: median survival time, dose: 40.0 mg/kg/injection, schedule: Q01DX009 (ip), vehicle: saline) was 110, 112, 135 [5 of 6 alive], 156 % of control. For the same molecule, the T/C (T/C endpoint: median survival time, dose: 50.0 mg/kg/injection, schedule: Q01DX009 (ip), vehicle: other) was 144 % of control, the T/C (T/C endpoint: median survival time, dose: 50.0 mg/kg/injection, schedule: Q01DX009 (ip), vehicle: water) was 144 % of control and the T/C (T/C endpoint: median survival time, dose: 50.0 mg/kg/injection, schedule: Q01DX017 (ip), vehicle: other) was 144 % of control. For the same molecule, the T/C (T/C endpoint: median survival time, dose: 60.0 mg/kg/injection, schedule: Q01DX001 (ip), vehicle: alkali diluted with saline) was 128 % of control, the T/C (T/C endpoint: median survival time, dose: 80.0 mg/kg/injection, schedule: Q01DX009 (ip), vehicle: saline) was 140, 156, 162, 175 % of control and the T/C (T/C endpoint: median survival time, dose: 100.0 mg/kg/injection, schedule: Q01DX001 (ip), vehicle: alkali diluted with saline) was 125 % of control. The survivor count (T/C endpoint: median survival time, dose: 100.0 mg/kg/injection, schedule: Q01DX009 (ip), vehicle: saline) was 5 of 6, the T/C (T/C endpoint: median survival time, dose: 100.0 mg/kg/injection, schedule: Q01DX009 (ip), vehicle: water) was 144 % of control and the T/C (T/C endpoint: median survival time, dose: 100.0 mg/kg/injection, schedule: Q01DX017 (ip), vehicle: other) was 138 % of control. For the same molecule, the T/C (T/C endpoint: median survival time, dose: 160.0 mg/kg/injection, schedule: Q01DX009 (ip), vehicle: saline) was 130 % of control, the T/C (T/C endpoint: median survival time, dose: 167.0 mg/kg/injection, schedule: Q01DX001 (ip), vehicle: alkali diluted with saline) was 137 % of control and the survivor count (T/C endpoint: median survival time, dose: 200.0 mg/kg/injection, schedule: Q01DX009 (ip), vehicle: other) was 7 of 8. For the same molecule, the T/C (T/C endpoint: median survival time, dose: 200.0 mg/kg/injection, schedule: Q01DX009 (ip), vehicle: water) was 144 % of control.
